Consider 46 targets from the supplement of paper PMC5836539.

By UniProt entry, the sequences of proteins in these tests, tags left out. Where a name states a change or a piece, a line headed by the entry shows the natural chain unless it says otherwise.
UniProt O43583: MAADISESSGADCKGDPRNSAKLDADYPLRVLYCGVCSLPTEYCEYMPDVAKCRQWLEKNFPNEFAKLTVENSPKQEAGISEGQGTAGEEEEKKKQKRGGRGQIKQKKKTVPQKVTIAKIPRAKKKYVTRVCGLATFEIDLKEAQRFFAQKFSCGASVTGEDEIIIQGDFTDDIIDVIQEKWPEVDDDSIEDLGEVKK
UniProt O95295: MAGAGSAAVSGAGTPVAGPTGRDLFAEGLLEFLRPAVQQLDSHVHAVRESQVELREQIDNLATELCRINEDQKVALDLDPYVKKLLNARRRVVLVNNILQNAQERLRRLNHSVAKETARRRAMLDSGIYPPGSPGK
UniProt P17812: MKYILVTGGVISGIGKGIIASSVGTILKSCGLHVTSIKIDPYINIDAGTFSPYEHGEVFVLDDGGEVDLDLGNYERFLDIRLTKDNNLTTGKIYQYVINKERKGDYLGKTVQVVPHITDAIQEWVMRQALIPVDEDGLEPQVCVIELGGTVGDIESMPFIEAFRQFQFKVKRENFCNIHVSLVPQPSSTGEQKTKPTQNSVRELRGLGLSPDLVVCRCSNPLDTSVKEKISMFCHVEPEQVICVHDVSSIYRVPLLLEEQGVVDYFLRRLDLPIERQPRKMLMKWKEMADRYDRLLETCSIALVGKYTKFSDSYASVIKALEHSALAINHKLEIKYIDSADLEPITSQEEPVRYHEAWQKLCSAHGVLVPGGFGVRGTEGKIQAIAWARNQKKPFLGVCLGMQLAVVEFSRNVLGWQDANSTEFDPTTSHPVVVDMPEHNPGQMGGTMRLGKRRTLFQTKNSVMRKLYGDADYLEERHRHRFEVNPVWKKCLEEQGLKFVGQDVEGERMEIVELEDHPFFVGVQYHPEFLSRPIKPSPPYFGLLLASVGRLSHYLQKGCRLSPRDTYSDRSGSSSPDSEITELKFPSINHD
UniProt Q15121, whole entry: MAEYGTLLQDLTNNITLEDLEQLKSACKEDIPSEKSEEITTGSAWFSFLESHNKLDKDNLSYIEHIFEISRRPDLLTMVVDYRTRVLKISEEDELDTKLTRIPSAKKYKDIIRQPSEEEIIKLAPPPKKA
UniProt Q63HN8: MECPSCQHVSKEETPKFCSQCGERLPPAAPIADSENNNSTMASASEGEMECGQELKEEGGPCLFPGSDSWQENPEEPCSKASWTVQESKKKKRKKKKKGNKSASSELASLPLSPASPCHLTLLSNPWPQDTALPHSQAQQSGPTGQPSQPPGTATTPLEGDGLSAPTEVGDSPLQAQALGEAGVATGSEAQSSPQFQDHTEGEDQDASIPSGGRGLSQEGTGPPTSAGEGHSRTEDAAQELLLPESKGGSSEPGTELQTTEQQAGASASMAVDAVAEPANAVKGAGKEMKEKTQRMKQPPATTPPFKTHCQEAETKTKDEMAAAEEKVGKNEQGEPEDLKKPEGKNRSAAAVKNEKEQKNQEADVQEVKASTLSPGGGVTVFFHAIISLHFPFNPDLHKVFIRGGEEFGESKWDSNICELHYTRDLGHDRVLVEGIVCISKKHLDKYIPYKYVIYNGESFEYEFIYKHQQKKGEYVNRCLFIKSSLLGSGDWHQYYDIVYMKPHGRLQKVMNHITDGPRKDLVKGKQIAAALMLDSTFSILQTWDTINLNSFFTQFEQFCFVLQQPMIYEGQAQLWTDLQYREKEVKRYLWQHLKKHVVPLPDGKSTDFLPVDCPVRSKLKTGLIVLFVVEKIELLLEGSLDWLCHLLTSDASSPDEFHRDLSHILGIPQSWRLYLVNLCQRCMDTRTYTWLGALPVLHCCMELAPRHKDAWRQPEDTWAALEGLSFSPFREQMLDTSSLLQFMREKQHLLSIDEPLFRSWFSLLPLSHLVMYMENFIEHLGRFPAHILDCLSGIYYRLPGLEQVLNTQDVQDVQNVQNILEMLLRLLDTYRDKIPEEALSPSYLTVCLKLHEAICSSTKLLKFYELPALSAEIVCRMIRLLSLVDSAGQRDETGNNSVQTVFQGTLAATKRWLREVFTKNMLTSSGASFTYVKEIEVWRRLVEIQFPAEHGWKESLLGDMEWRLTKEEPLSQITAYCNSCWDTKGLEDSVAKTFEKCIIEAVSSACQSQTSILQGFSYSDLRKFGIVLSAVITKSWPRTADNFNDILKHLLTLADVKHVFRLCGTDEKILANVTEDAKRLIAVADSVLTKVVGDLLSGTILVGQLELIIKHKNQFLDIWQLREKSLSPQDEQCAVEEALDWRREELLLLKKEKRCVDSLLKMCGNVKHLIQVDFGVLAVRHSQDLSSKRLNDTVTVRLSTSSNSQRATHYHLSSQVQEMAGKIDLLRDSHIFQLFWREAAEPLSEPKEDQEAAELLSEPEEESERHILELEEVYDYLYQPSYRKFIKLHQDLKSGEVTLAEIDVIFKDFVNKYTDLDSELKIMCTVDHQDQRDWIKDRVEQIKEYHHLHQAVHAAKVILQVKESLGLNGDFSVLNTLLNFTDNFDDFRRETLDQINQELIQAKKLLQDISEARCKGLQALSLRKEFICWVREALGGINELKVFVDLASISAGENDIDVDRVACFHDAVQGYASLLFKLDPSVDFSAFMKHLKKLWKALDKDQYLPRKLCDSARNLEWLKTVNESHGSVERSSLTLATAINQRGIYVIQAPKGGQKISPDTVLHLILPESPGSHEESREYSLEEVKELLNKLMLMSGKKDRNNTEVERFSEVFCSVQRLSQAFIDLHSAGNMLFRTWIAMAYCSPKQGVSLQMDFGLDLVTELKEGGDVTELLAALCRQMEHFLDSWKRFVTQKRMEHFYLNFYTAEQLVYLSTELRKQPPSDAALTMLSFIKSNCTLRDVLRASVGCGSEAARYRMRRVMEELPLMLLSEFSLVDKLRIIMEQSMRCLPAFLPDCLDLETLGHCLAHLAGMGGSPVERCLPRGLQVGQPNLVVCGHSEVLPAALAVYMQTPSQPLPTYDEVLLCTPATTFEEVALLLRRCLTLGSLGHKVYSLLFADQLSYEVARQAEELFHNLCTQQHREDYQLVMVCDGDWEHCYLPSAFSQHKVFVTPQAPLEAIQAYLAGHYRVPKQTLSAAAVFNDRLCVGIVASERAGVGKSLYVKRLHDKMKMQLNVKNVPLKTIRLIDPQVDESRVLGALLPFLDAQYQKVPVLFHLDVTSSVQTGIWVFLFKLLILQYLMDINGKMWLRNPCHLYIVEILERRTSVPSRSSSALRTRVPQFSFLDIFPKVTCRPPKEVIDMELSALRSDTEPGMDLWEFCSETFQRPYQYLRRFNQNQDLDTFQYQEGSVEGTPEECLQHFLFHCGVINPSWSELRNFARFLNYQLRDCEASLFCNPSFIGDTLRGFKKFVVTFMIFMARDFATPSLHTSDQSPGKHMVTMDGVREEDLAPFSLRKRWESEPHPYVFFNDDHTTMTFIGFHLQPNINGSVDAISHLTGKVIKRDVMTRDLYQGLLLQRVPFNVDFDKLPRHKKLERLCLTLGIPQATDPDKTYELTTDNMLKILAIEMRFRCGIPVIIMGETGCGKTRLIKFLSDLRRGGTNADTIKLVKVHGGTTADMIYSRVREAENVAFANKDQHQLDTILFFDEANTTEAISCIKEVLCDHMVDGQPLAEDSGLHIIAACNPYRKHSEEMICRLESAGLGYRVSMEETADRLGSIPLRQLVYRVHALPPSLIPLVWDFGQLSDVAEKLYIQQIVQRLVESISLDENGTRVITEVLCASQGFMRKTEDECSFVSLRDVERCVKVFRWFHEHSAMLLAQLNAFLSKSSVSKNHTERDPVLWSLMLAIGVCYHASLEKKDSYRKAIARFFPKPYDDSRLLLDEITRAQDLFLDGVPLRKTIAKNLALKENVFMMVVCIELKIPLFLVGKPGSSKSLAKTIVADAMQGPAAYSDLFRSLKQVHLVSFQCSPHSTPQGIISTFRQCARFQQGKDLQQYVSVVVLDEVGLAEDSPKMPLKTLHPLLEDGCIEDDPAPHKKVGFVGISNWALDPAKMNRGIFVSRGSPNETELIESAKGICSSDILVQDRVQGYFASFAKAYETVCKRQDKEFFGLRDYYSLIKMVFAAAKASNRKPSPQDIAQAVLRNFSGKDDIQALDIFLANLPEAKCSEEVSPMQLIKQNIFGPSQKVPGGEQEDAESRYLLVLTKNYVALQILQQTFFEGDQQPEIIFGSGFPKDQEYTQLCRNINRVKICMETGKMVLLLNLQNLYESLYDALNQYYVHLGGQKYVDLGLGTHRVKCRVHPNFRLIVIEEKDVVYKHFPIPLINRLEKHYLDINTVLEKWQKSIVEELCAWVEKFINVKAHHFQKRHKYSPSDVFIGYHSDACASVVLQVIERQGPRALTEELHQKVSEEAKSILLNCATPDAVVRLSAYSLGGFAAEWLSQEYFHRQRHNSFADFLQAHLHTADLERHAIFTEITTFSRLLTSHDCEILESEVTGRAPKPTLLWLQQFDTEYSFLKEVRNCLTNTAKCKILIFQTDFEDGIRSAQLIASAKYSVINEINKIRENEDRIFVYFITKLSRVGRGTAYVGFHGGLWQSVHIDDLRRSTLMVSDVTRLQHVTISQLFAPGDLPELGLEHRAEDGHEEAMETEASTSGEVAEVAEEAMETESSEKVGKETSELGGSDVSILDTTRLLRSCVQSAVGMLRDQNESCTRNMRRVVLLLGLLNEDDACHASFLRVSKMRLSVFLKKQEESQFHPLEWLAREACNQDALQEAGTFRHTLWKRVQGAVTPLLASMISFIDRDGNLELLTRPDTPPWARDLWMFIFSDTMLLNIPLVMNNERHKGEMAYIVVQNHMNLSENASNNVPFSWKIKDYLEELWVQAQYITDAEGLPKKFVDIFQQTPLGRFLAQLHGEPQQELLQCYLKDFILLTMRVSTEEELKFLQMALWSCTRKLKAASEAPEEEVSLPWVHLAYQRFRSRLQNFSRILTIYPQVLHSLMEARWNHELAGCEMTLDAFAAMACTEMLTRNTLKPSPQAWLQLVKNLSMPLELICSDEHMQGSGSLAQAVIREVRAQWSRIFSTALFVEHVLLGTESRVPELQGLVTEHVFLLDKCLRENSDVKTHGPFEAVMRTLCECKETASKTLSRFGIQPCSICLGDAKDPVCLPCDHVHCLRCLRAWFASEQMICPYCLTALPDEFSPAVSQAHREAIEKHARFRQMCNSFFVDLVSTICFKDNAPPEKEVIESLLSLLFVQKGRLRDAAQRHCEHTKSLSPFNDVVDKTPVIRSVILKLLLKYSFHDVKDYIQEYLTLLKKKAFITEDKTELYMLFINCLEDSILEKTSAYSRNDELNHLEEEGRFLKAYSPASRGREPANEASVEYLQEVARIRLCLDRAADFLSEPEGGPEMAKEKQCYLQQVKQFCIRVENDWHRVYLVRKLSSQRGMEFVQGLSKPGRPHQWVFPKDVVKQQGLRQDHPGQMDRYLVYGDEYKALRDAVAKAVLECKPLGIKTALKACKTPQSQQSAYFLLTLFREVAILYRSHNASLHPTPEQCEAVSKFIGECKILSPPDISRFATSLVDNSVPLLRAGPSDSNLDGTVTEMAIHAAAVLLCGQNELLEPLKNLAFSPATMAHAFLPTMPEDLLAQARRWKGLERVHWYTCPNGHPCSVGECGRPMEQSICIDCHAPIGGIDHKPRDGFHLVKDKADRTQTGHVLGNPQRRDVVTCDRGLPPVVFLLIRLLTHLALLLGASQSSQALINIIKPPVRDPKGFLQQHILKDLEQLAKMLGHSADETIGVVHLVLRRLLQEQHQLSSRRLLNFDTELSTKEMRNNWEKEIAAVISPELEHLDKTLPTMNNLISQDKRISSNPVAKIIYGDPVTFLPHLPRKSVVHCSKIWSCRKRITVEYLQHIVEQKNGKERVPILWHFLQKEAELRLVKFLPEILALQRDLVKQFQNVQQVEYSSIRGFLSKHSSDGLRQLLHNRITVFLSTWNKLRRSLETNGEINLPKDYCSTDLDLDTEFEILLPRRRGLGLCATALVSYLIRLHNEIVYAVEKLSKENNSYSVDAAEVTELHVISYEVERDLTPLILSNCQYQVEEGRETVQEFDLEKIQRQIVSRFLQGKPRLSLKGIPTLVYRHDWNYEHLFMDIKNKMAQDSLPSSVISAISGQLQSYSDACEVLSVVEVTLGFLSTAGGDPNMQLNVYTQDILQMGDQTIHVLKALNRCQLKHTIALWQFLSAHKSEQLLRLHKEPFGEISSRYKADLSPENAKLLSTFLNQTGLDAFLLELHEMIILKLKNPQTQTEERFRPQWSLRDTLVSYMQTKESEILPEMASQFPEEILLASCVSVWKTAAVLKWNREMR
UniProt P20042, whole entry, looked up: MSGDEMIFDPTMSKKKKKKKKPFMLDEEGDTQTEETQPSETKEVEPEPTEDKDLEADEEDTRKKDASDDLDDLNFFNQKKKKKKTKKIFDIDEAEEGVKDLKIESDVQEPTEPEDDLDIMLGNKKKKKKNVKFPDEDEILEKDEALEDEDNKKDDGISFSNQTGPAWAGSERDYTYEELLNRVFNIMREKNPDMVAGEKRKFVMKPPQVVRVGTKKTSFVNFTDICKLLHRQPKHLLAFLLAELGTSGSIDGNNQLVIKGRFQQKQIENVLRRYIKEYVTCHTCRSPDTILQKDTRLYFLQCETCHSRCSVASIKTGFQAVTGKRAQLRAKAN

± gives the standard deviation of the averaged measurements. Single values are uncertain here, since repeats match poorly.

Compound in assay [1]: T1, CC[C@@H](C)Nc1cc(C(=O)N[C@H]2C[C@H]3CC[C@@H](C2)N3c2ccc(C(=O)C3CC3)cn2)c(C)cc1C(N)=O [XL888]
The assay is described as follows: phosphopeptide melting temperature shift (XL888 minus DMSO); higher = stabilised by drug treatment. Conditions: 100 µM; treatment time 2 h; layout: intact cells; SK-Mel 28. As for the experimental part: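 Phospho-TPP in intact SK-Mel 28 cells treated with 100 uM XL888 or DMSO for 2 h, heated at 10 temperatures (37-67 C) for 3 min, soluble fraction TMT10plex-labelled and TiO2 phospho-enriched. Melting curves were fitted per phosphopeptide; the value is the melting point difference (drug minus vehicle) in each of two biological replicates.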

Compound in assay [2]: T1, XL888
Described as above. Conditions: 100 µM; treatment time 2 h; layout: intact cells; SK-Mel 24. As for the experimental part: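 Phospho-TPP in intact SK-Mel 24 cells treated with 100 uM XL888 or DMSO for 2 h, heated at 10 temperatures (37-67 C) for 3 min, soluble fraction TMT10plex-labelled and TiO2 phospho-enriched. Melting curves were fitted per phosphopeptide; the value is the melting point difference (drug minus vehicle) in each of two biological replicates.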

Take “UniProt P52948-6_phosphosite_888 (phosphosite position: 888)”: the entries for the “phosphopeptide melting temperature shift” value with XL888 [1] and with XL888 [2] were 0.717 °C and 0.492 °C, respectively.
For “DYNC1H1 phosphosite_4368 (phosphosite position: 4368) (UniProt Q14204)”, in that order: 0.166 ± 0.071 °C and -0.44 °C.
For “UniProt Q6KC79-2_phosphosite_2658 (phosphosite position: 2658)”, the “phosphopeptide melting temperature shift” value with XL888 [1] was found to be 3.45 °C; with XL888 [2], 0.787 °C.
As for “UniProt Q9NZT2-2_phosphosite_315 (phosphosite position: 315)”, the “phosphopeptide melting temperature shift” value was -0.586 ± 0.16 °C with XL888 [1] and -0.00427 °C in the assay with XL888 [2].
“TRIP12 phosphosite_312 (phosphosite position: 312) (UniProt Q14669)”: the “phosphopeptide melting temperature shift” value with XL888 [1] was -3.01 °C; in the assay with XL888 [2], 1.28 °C.
For “DENR phosphosite_73 (phosphosite position: 73) (UniProt O43583)”, in that order: 6.16 °C and 0.693 ± 0.2 °C.
With “SNAPIN phosphosite_133 (phosphosite position: 133) (UniProt O95295)”, the “phosphopeptide melting temperature shift” value in the assay with XL888 [1] was -0.221 °C; with XL888 [2], 0.818 °C.
In the case of “SNRK phosphosite_569 (phosphosite position: 569) (UniProt Q9NRH2)”, the “phosphopeptide melting temperature shift” value turned out to be 0.525 ± 1.5 °C in the assay with XL888 [1] and 1.1 °C with XL888 [2].
For “CLNS1A phosphosite_102 (phosphosite position: 102) (UniProt P54105)”, in that order: 1.77 ± 0.78 °C and 1.54 °C.
On to “SRRM1 phosphosite_450 (phosphosite position: 450) (UniProt Q8IYB3)”, for which the results for the “phosphopeptide melting temperature shift” value with XL888 [1] and in the assay with XL888 [2] were 0.00242 ± 0.2 °C and -0.164 ± 0.43 °C, respectively.
On to “UniProt Q9BZZ5-2_phosphosite_464 (phosphosite position: 464)”, for which the “phosphopeptide melting temperature shift” value stood at 0.0414 ± 0.67 °C with XL888 [1] and 0.378 ± 0.23 °C with XL888 [2].
For “NCL phosphosite_619 (phosphosite position: 619) (UniProt P19338)”, in that order: -1.33 °C and 0.0511 °C.
Regarding “UniProt Q8ND56-2_phosphosite_216 (phosphosite position: 216)”, the “phosphopeptide melting temperature shift” value with XL888 [1] is 0.597 °C; with XL888 [2], -0.015 ± 0.73 °C.
In the case of “NCL phosphosite_563 (phosphosite position: 563) (UniProt P19338)”, the “phosphopeptide melting temperature shift” value with XL888 [1] is -0.0516 ± 1.1 °C; with XL888 [2], 1.76 °C.
As for “UniProt P46379-2_phosphosite_958 (phosphosite position: 958)”, the entries for the “phosphopeptide melting temperature shift” value in the assay with XL888 [1] and in the assay with XL888 [2] were 2.05 °C and -0.271 °C, respectively.
For “HSP90AA1 phosphosite_263 (phosphosite position: 263) (UniProt P07900)”, in that order: 7.78 ± 0.1 °C and 7.8 ± 0.14 °C.
Take “UniProt Q13428-6_phosphosite_1340 (phosphosite position: 1340)”: the entries for the “phosphopeptide melting temperature shift” value with XL888 [1] and with XL888 [2] were -0.328 °C and -0.904 °C, respectively.
With “ASAP2 phosphosite_701 (phosphosite position: 701) (UniProt O43150)”, the “phosphopeptide melting temperature shift” value is 0.428 ± 0.093 °C with XL888 [1] and 0.809 °C in the assay with XL888 [2].
With “UniProt P35606-2_phosphosite_830 (phosphosite position: 830)”, the “phosphopeptide melting temperature shift” value in the assay with XL888 [1] was 0.421 ± 0.4 °C; with XL888 [2], 0.311 ± 0.25 °C.
Consider “UniProt Q15149_phosphosite_4386 (phosphosite position: 4386)”, for which the results for the “phosphopeptide melting temperature shift” value in the assay with XL888 [1] and in the assay with XL888 [2] were -0.179 ± 0.73 °C and 0.165 °C, respectively.
For “UniProt P26368-2_phosphosite_79 (phosphosite position: 79)”, in that order: -1.3 ± 0.27 °C and 1.353 ± 0.012 °C.
For “PPP1R7 phosphosite_27 (phosphosite position: 27) (UniProt Q15435)”, the “phosphopeptide melting temperature shift” value was 0.135 ± 0.75 °C with XL888 [1] and -0.693 °C with XL888 [2].
Take “UniProt Q14677-2_phosphosite_281 (phosphosite position: 281)”: the entries for the “phosphopeptide melting temperature shift” value with XL888 [1] and with XL888 [2] were 1.08 ± 0.12 °C and 2.02 °C, respectively.
Regarding “UniProt P17812_phosphosite_575 (phosphosite position: 575)”, the “phosphopeptide melting temperature shift” value with XL888 [1] is 1.05 ± 0.084 °C; in the assay with XL888 [2], -1 °C.
For “UniProt Q99613-2_phosphosite_39 (phosphosite position: 39)”, in that order: -1.4 °C and 0.000891 ± 0.21 °C.
For “CBX3 phosphosite_95 (phosphosite position: 95) (UniProt Q13185)”, in that order: 0.166 ± 0.62 °C and 0.391 °C.
For “UniProt Q9NY27-2_phosphosite_169 (phosphosite position: 169)”, in that order: 1.79 ± 1.3 °C and 1.61 °C.
For the target “PGM2 phosphosite_165 (phosphosite position: 165) (UniProt Q96G03)”, the “phosphopeptide melting temperature shift” value was -0.195 °C in the assay with XL888 [1] and 0.266 ± 1.7 °C in the assay with XL888 [2].
For “SNW1 phosphosite_224 (phosphosite position: 224) (UniProt Q13573)”, in that order: -0.293 ± 0.81 °C and 0.803 ± 1.8 °C.
As to “INPP5F phosphosite_942 (phosphosite position: 942) (UniProt Q9Y2H2)”, the figures for the “phosphopeptide melting temperature shift” value with XL888 [1] and with XL888 [2] were 1.05 ± 0.046 °C and 0.191 ± 0.59 °C, respectively.
For “HSP90AA1 phosphosite_231 (phosphosite position: 231) (UniProt P07900)”, in that order: 7.45 ± 0.11 °C and 7.6043 ± 0.0015 °C.
With “UniProt Q14155-1_phosphosite_516 (phosphosite position: 516)”, the “phosphopeptide melting temperature shift” value in the assay with XL888 [1] is -0.14 ± 0.39 °C; with XL888 [2], -0.518 °C.
For “STIP1 phosphosite_481 (phosphosite position: 481) (UniProt P31948)”, in that order: 0.955 ± 0.23 °C and 2.44 °C.
For “PEA15 phosphosite_116 (phosphosite position: 116) (UniProt Q15121)”, the “phosphopeptide melting temperature shift” value in the assay with XL888 [1] was -0.00752 ± 0.19 °C; with XL888 [2] it was 0.161 ± 0.12 °C.
For “UniProt Q9H116-4_phosphosite_122 (phosphosite position: 122)”, in that order: -1.46 ± 0.56 °C and -3.82 °C.
“UniProt Q04637-6_phosphosite_1035 (phosphosite position: 1035)”: the “phosphopeptide melting temperature shift” value was determined as 0.384 ± 0.32 °C in the assay with XL888 [1] and 1.283 ± 0.0026 °C with XL888 [2].
For “SPTBN1 phosphosite_2320 (phosphosite position: 2320) (UniProt Q01082)”, in that order: 3.09 ± 1.6 °C and 1.02 °C.
For “UniProt Q9BVG4_phosphosite_197 (phosphosite position: 197)”, in that order: 1.28 ± 0.74 °C and 0.535 °C.
As to “ILF3 phosphosite_382 (phosphosite position: 382) (UniProt Q12906)”, the “phosphopeptide melting temperature shift” value is 1.59 ± 1.5 °C in the assay with XL888 [1] and -0.792 °C in the assay with XL888 [2].
With “UniProt Q63HN8_phosphosite_1258 (phosphosite position: 1258)”, the “phosphopeptide melting temperature shift” value with XL888 [1] turned out to be 2.06 ± 1.5 °C; with XL888 [2] it was 0.531 °C.
“DBN1 phosphosite_337 (phosphosite position: 337) (UniProt Q16643)”: the results for the “phosphopeptide melting temperature shift” value in the assay with XL888 [1] and in the assay with XL888 [2] were 3.4 ± 1.4 °C and 0.522 °C, respectively.
For “UniProt Q05209-2_phosphosite_305 (phosphosite position: 305)”, in that order: 0.837 ± 0.49 °C and 0.161 °C.
As to “UniProt Q9NQ55-2_phosphosite_359 (phosphosite position: 359)”, the figures for the “phosphopeptide melting temperature shift” value with XL888 [1] and with XL888 [2] were -0.107 °C and 0.522 °C, respectively.
For “RPLP0 phosphosite_304 (phosphosite position: 304) (UniProt P05388)”, in that order: 0.928 ± 0.91 °C and 6.33 °C.
For “UniProt Q15366-2_phosphosite_189 (phosphosite position: 189)”, in that order: 3.04 °C and 1.84 °C.
For “EIF2S2 phosphosite_67 (phosphosite position: 67) (UniProt P20042)”, in that order: -0.9 °C and 0.0157 °C.
